# In all, about 33,000 sequences were measured (“E-score (-0.5 to 0.5)”: median about -0.015, highest 2% from about 0.3 on). The list shows a part of the results.
# Biological target: T1, Abf1 (UniProt P14164)
# T1 sequence: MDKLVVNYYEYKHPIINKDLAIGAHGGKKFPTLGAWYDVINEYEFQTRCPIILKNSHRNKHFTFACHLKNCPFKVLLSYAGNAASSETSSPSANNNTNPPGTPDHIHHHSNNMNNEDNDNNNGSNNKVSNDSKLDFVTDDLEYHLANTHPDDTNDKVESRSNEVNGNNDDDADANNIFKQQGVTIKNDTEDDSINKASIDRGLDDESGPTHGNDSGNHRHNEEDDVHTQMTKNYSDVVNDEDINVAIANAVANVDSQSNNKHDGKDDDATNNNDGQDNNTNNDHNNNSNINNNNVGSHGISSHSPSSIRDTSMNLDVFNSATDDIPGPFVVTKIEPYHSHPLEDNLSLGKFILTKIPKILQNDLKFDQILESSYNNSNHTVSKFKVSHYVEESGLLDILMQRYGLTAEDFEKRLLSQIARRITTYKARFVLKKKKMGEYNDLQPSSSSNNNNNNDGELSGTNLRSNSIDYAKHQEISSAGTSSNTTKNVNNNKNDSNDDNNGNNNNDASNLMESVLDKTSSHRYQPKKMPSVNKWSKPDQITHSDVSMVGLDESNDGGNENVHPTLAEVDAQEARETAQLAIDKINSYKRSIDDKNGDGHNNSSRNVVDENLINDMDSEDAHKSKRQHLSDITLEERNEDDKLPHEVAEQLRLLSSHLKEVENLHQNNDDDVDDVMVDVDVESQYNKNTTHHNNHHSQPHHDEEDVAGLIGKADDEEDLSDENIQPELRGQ
# Assay: PBM E-score (8-mer binding enrichment) (E-score (-0.5 to 0.5)); higher = stronger / more preferred TF binding
# Conditions: protein concentration: 200 nM; construct: GST-full length
# Outline: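 Each ungapped eight-base word and its reverse complement, pooled, received an E-score from the Universal PBM Analysis Suite. Underlying scans, normalised with masliner, recorded fluorescent anti-GST bound to GST-tagged yeast transcription factors. These were applied at about 100-200 nM to universal all-10-mer Agilent arrays double-stranded by primer extension.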
row,Sequence,PBM E-score
1,CAGCCGGA,-0.0149
2,AAGTATAA,0.192
3,ACGGCACC,0.0263
4,GCCCACAA,-0.158
5,ACTCCTTA,-0.0759
6,CATTCCTA,-0.046
7,TCGAATCA,0.00024
8,GTGCCGCA,0.165
9,TCATTCCA,0.169
10,AGCTCGAA,-0.0104
11,TCGAGGCA,-0.00215
12,CAATGGCG,-0.201
13,AAAAGCGC,-0.152
14,GAAATGGC,-0.108
15,ACCTAAGT,0.156
16,AACTAACC,0.161
17,ATTGTCAA,-0.0577
18,CGAGAGCC,-0.21
19,CAGTTACC,-0.0928
20,GATAAATC,0.195
21,ACGGGACT,0.104
22,AGCCTAGA,-0.227
23,TCCCTCCA,-0.206
24,ACGCCGCA,0.00303
25,CAGCGGTA,-0.177

row,Sequence,PBM E-score
1,CATAGAAG,0.00751
2,AATTGACA,0.01
3,CGTAGGGC,-0.0606
4,GTCTCATA,0.0549
5,TGGAACAA,-0.00558
6,CTTCGCAC,-0.00026
7,AGTTACGG,0.0796
8,AATGCGCA,0.0516
9,ATGTATTG,0.0248
10,AATTCCTG,-0.174
11,CAGACAGC,-0.289
12,GTGCGTAA,0.0996
13,ACAAGAGC,-0.0975
14,AACAATAC,0.0411
15,TCACCACA,0.115
16,ATTACAAA,0.176
17,CAGGTATC,-0.0743
18,CATTTTTC,0.189
19,AAGTCTTC,0.0143
20,AAATACGC,0.0308
21,ATTCAGCG,0.0115
22,AGACCCTA,-0.19
23,CAAGCCAC,-0.0725
24,ATACGAAA,0.349
25,CCGCCCGA,-0.137

row,Sequence,PBM E-score
1,AGATGTTC,-0.0873
2,ACAATTCG,0.111
3,GACCCACA,-0.114
4,AAATCCGC,-0.0551
5,CGGCACAA,0.133
6,GGTTTGTA,0.00375
7,ACTAATAC,0.0887
8,CCATGTAC,0.0435
9,CGGCCTTC,-0.00784
10,AAATCGAG,0.0194
11,ACCAGGGG,-0.326
12,GCCGTAAC,0.211
13,CTGTTAAA,0.0575
14,CGCTGCAC,-0.0424
15,GCTCCGTA,0.23
16,AGCTCCCG,-0.167
17,CATTCAAA,0.129
18,ATATATAC,0.262
19,GTAGGAAA,0.181
20,TATATCCA,0.121
21,AACCAGGG,-0.116
22,ATGCAACA,-0.0408
23,CACAGTCG,-0.0286
24,GTGTCAAC,-0.0112
25,AGAATTTG,-0.0116

# Some of the entries so far, with tabs.
row	Sequence	PBM E-score
14	GAAATGGC	-0.108
17	ATTGTCAA	-0.0577
19	CAGTTACC	-0.0928

# Carrying on.

row,Sequence,PBM E-score
1,AAAGCTGG,-0.172
2,AACCCAGC,-0.185
3,GCCTATAA,-0.143
4,GCGGACAC,-0.159
5,CAACCCCG,0.0234
6,CGAACTCC,0.0914
7,GCCTCAGA,-0.204
8,AATTGTCT,0.0233
9,AGGGTTGG,-0.138
10,CAATTTTA,0.178
11,TACCGATA,0.0136
12,TCTTCCCA,-0.315
13,CGCTAGCG,-0.101
14,CAGGGGTA,-0.0883
15,AACCTTGT,-0.153
16,ACCGTCAT,0.362
17,ACCACTAG,-0.105
18,CCTCGACG,0.057
19,CGGCCCAG,-0.265
20,CCCGTCCG,-0.292
21,CCAATCCA,-0.185
22,ACTCCAGC,-0.129
23,AAGATGCT,0.0839
24,GCGACAGC,-0.179
25,AAGAATGA,0.293

# A second format for some results above:
row | Sequence | PBM E-score
3 | ACGGCACC | 0.0263
23 | TCCCTCCA | -0.206
9 | CGGCCTTC | -0.00784
16 | AGCTCCCG | -0.167
18 | ATATATAC | 0.262
17 | ACCACTAG | -0.105

# Following part:

row,Sequence,PBM E-score
1,GCGGCGTA,-0.102
2,AACCCCAC,-0.204
3,GACTCCCC,-0.221
4,AACCCCAT,-0.372
5,CAAGCACG,0.126
6,ACATTGTG,-0.132
7,ACATGGCA,0.039
8,AGAGGGGG,-0.35
9,AAACACGG,0.172
10,ACGCGAAG,0.0352
11,CGTTTCGA,-0.0431
12,ACGTGGCC,0.0605
13,ATTAATTA,0.132
14,AGGAGTGA,0.155
15,AAACTACC,0.0231
16,CAACCCGA,-0.0131
17,AACTCTGC,-0.318
18,GGAAACTA,-0.00225
19,ATTTCGCG,0.0883
20,TACCTCTA,0.047
21,CTCCGAGA,0.0106
22,CAGGGAGA,-0.058
23,ACGACGGA,0.251
24,AAGTTGGG,-0.0337
25,TCATGCGA,0.154

row,Sequence,PBM E-score
1,ATTTCAAC,-0.0333
2,CGAGGCAG,-0.0274
3,ATCTGAGC,0.133
4,CTGAGATC,-0.0186
5,AGAAGGAC,-0.182
6,ATTCGTTC,0.171
7,GAAAACTC,-0.0772
8,ACCAGGTG,-0.137
9,GAGACCCA,-0.219
10,AACTAAGC,0.105
11,GAAAATAA,0.165
12,CATTGCTC,-0.0812
13,CAGTCTTA,-0.12
14,GGCCCGCC,-0.339
15,GTTCATTA,-0.0182
16,GTTTAGAA,0.163
17,AAGTCGAG,-0.00544
18,CCACAGGG,-0.191
19,CTGGCGAA,-0.0469
20,AGTTGAGC,-0.142
21,AGAAGGTA,0.0439
22,CGTGGTCC,0.065
23,CCTATGAC,0.0281
24,CGATGTCC,0.115
25,ATCAGTGA,0.2

row,Sequence,PBM E-score
1,GGAGTTAA,-0.134
2,AAAATGCT,0.133
3,AGGTTCTA,-0.0694
4,ATCCACGA,0.199
5,CAAGCAGC,-0.139
6,GAGGGGGC,-0.346
7,ATACGCCC,-0.247
8,CATTACTA,0.0574
9,ATGTTCAG,-0.076
10,ATAAGAAG,0.166
11,ACAAGAGT,-0.0721
12,CACTGTAA,0.141
13,CTGACACA,-0.208
14,GCTCCGGA,-0.236
15,AGCAACAG,0.0864
16,CGCGTCTA,-0.0425
17,TGCTTACA,0.00935
18,ACGTATTG,0.0716
19,GCACGGAC,0.208
20,ACGGTCTA,0.112
21,ACGGATCG,-0.0271
22,ATGAGACG,0.0508

# From the supplement of paper PMC3334620
